{
  "source": "PubChem BioAssay AID1347076",
  "about": "(National Center for Advancing Translational Sciences (NCATS), 2019)",
  "note": "Out of some 400,000 compounds screened, about 13,000 (3.2%) were called active. The shares of active, inactive and inconclusive entries below differ from those in the screen. Calls follow the shape of the dose curve; as a rule, active = well fitted cell-killing curve with a large enough effect; inconclusive = small, poorly fitted or top-dose-only effect, or effect the other way; inactive = flat fitted curve, though single readings scatter. Where the call is inconclusive, the potency comes from a doubtful curve fit. % is scaled to controls: 0 for no effect and ±100 for the full control effect; potency is read from the fitted curve at half-maximal effect.",
  "data": [
    {"test": "qHTS assay for MDR1-selective chemotherapeutics: Primary screen using the drug-selected MDR subline cells KB-V1; also: nearly all actives have a fitted effect of over 60% in size", "details": "KB-V1 MDR cells viability, CellTiter-Glo, 72 h; activity change, negative = cytotoxicity: at 46.1 µM (top of the series)", "method_in_brief": "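Compound-treated KB-V1 multidrug-resistant cells, 72 h, 37 degrees C; viability by CellTiter-Glo. Fitted qHTS curves give the values.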", "values": [
      {"smiles": "Cc1ccc(OCCNC(=O)c2cccc(S(=O)(=O)NCc3ccccc3)c2)cc1", "Potency": "active: 8.2 µM"},
      {"smiles": "Cc1nc2c(c(C)nn2-c2ccccc2)c(C)c1CCC(=O)Nc1ccc(CN2CCCC2)cc1", "Potency": "inconclusive: 6.51 µM [cytotoxic, partial curve, poor fit]"},
      {"smiles": "CSCCC(NC(=O)c1ccccc1Cl)C(=O)N1CCN(C(C)=O)CC1", "note": "(configuration not stated)", "activity change, negative = cytotoxicity": "inactive: -5.05%"},
      {"smiles": "O=C(CNc1cccc(S(=O)(=O)N2CCCCC2)c1)Nc1cccc(F)c1", "Potency": "inconclusive: 11.6 µM [cytotoxic, partial curve]"},
      {"smiles": "Nc1cc(OC(=O)c2cccs2)nn1S(=O)(=O)c1ccc(F)cc1", "activity change, negative = cytotoxicity": "inactive: 0%"},
      {"smiles": "COc1cccc(S(=O)(=O)NCc2ccc(C(=O)Nc3cccc(Cl)c3)cc2)c1", "Potency": "inconclusive: 13 µM [cytotoxic, partial curve]"},
      {"smiles": "c1ccc(NN(Cc2ccccn2)c2ccccc2)cc1", "Potency": "inconclusive: 29.1 µM [cytotoxic, single point]"},
      {"smiles": "COc1ccc(C(=O)Nc2nc(N)n(-c3ccccc3)n2)cc1", "Potency": "inconclusive: 10.3 µM [cytotoxic, partial curve]"},
      {"smiles": "CC(C)(C)OC(=O)NCC(=O)Oc1cc2oc(=O)cc(-c3ccccc3)c2cc1Cl", "activity change, negative = cytotoxicity": "inactive: -29.5%"},
      {"smiles": "COc1ccc(OCCN2CCOCC2)cc1", "Potency": "inconclusive: 29.1 µM [rising, single point]"},
      {"smiles": "c1ccc(-c2nc3ccccc3s2)nc1", "Potency": "inconclusive: 0.0082 µM [rising, full curve, poor fit]"},
      {"smiles": "COc1ccc2c(c1)c(CC(=O)Nc1ccccc1OC)c(C)n2C(=O)c1ccc(Cl)cc1", "Potency": "inconclusive: 5.17 µM [cytotoxic, partial curve, poor fit]"},
      {"smiles": "Cc1cc(C)c(S(=O)(=O)N2CCOCC2)c(C)c1N(C)S(=O)(=O)c1ccccc1", "Potency": "inconclusive: 20.6 µM [cytotoxic, single point]"},
      {"smiles": "O=C1CC(c2ccc(Cl)cc2)SC(N(c2ccccc2)c2ccccc2)=N1", "note": "(configuration not stated)", "Potency": "inconclusive: 18.4 µM [cytotoxic, partial curve, poor fit]"},
      {"smiles": "Cc1cc(F)ccc1C(O)c1ncc(-c2ccc3ccccc3c2)[nH]1", "note": "(configuration not stated)", "Potency": "inconclusive: 29.1 µM [cytotoxic, single point]"},
      {"smiles": "COc1ccc(CCN(C(=O)c2snc(C(N)=O)c2N)C(C)C(=O)NC2CCCCC2)cc1OC", "note": "(configuration not stated)", "Potency": "inconclusive: 29.1 µM [cytotoxic, single point]"},
      {"smiles": "Cc1cc(C(=O)N(C)C2CCCCC2)no1", "Potency": "inconclusive: 8.2 µM [rising, partial curve, poor fit]"},
      {"smiles": "CCOC(=O)c1ccc(OCC2c3cc(OC)c(OC)cc3CCN2C(=O)Cc2ccc(OC)c(OC)c2)cc1", "note": "(configuration not stated)", "activity change, negative = cytotoxicity": "inactive: 3.59%"},
      {"smiles": "O=S(=O)(c1ccc(F)c(Cl)c1)N1CCN(C/C=C/c2ccccc2)CC1", "Potency": "inconclusive: 20.6 µM [cytotoxic, single point]"},
      {"smiles": "COc1cc(/C=C2/C(=N)N3C=CSC3=NC2=O)ccc1OCCCOc1cc(C)ccc1C", "Potency": "inconclusive: 14.6 µM [cytotoxic, partial curve]"},
      {"smiles": "CCN1Cc2cccc(C(=O)Nc3ccc(F)cc3)c2C1=O", "activity change, negative = cytotoxicity": "inactive: -0.253%"},
      {"smiles": "O=c1onc(-c2ccccc2)n1Cc1ccc([N+](=O)[O-])cc1", "activity change, negative = cytotoxicity": "inactive: -22.9%"},
      {"smiles": "O=C1CCc2cc(Cl)c(S(=O)(=O)Nc3ccc(Cl)c(Cl)c3)cc2N1", "activity change, negative = cytotoxicity": "inactive: -8.36%"},
      {"smiles": "CCn1c(SCC(=O)c2cccs2)nnc1-c1cccs1", "activity change, negative = cytotoxicity": "inactive: 0%"},
      {"smiles": "CC(=O)c1ccc(N2CCN(C(=O)c3ccco3)C(C)C2)c(F)c1", "note": "(configuration not stated)", "Potency": "inconclusive: 18.4 µM [cytotoxic, partial curve]"},
      {"smiles": "Cc1ccc(-c2csc(=Nc3ccccc3)n2CCCO)cc1", "activity change, negative = cytotoxicity": "inactive: -5.05%"},
      {"smiles": "CCOc1ccc(C(=O)CCC(=O)N2CCN(S(=O)(=O)c3cccc(F)c3)CC2)cc1", "Potency": "inconclusive: 18.4 µM [cytotoxic, partial curve, poor fit]"},
      {"smiles": "O=C(COC(=O)c1cc(Cl)nc2ccccc12)c1ccc(Cl)cc1", "Potency": "inconclusive: 18.4 µM [rising, single point]"},
      {"smiles": "COc1ccc(CCNC(=O)CCCn2c(=O)c3ccccc3n(CC(=O)Nc3c(C)cc(C)cc3C)c2=O)cc1OC", "Potency": "inconclusive: 0.0411 µM [rising, full curve]"},
      {"smiles": "Cc1nn(Cc2ccccc2Cl)c(Cl)c1C(=O)NCCc1ccccc1", "activity change, negative = cytotoxicity": "inactive: -4.72%"},
      {"smiles": "O=C(Cn1nnc(-c2ccccc2)n1)NCC(=O)Nc1ccc(F)c(F)c1F", "Potency": "inconclusive: 29.1 µM [rising, single point]"},
      {"smiles": "CC1(c2nnnn2Cc2ccccc2)CCC(=O)N1CCc1ccccc1F", "note": "(configuration not stated)", "Potency": "inconclusive: 13 µM [cytotoxic, partial curve]"},
      {"smiles": "COc1ccc(NC(=O)c2cccc(S(=O)(=O)N3CCc4ccccc43)c2)cn1", "Potency": "active: 13 µM"},
      {"smiles": "O=C(NCc1cccnc1)NC1(c2ccccc2)CC1", "Potency": "inconclusive: 3.66 µM [cytotoxic, partial curve, poor fit]"},
      {"smiles": "COc1cccc(N2CCN(c3ncccn3)CC2)c1", "Potency": "inconclusive: 23.1 µM [cytotoxic, single point]"},
      {"smiles": "Cc1ccc2c(CN3CCOCC3)cc(=O)oc2c1C", "activity change, negative = cytotoxicity": "inactive: -1.03%"},
      {"smiles": "O=C(c1cccc(S(=O)(=O)Nc2ccc(Br)cc2)c1)N1CCC1", "activity change, negative = cytotoxicity": "inactive: -0.898%"},
      {"smiles": "O=C(O)c1nn(CCOc2c(Cl)cccc2Cl)c(=O)c2ccccc12", "Potency": "inconclusive: 20.6 µM [cytotoxic, single point]"},
      {"smiles": "O=C(O)CNS(=O)(=O)c1ccc(C2CCCCC2)cc1", "activity change, negative = cytotoxicity": "inactive: 15.8%"},
      {"smiles": "O=C(NC12CC3CC(CC(C3)C1)C2)c1ccc(-c2ccccc2Cl)o1", "activity change, negative = cytotoxicity": "inactive: -21.5%"},
      {"smiles": "COc1ccc2[nH]cc(CCN3C(=O)CCC3=O)c2c1", "Potency": "inconclusive: 29.1 µM [rising, single point]"},
      {"smiles": "O=C(CN1C(=O)c2ccccc2S1(=O)=O)NCCSCc1ccccc1Cl", "Potency": "inconclusive: 29.1 µM [rising, single point]"},
      {"smiles": "CCOc1ccc(C(=O)NNC(=O)c2cc(S(=O)(=O)N3CCOCC3)ccc2Cl)cc1", "Potency": "inconclusive: 18.4 µM [cytotoxic, single point]"},
      {"smiles": "Cc1ccc(C)c(S(=O)(=O)N2CCN(CC(=O)NC(=O)NCc3ccco3)CC2)c1", "Potency": "inconclusive: 9.2 µM [cytotoxic, partial curve]"},
      {"smiles": "CCOC(=O)c1c(-c2ccc(C)cc2)csc1NC(=O)c1ccc(C(C)(C)C)cc1", "Potency": "inconclusive: 11.6 µM [rising, partial curve, poor fit]"},
      {"smiles": "CCC(C)c1ccc(OCC(=O)Nc2cccc(C(=O)Nc3ccc(C(=O)O)cc3)c2)cc1", "note": "(configuration not stated)", "Potency": "inconclusive: 29.1 µM [rising, single point]"},
      {"smiles": "Cc1cc(C)n2nc(C(=O)OCC(=O)NC(=O)c3ccccc3)nc2n1", "Potency": "inconclusive: 25.9 µM [rising, single point]"},
      {"smiles": "CNc1cnc(-c2ccc(F)c(F)c2F)cn1", "activity change, negative = cytotoxicity": "inactive: -0.364%"},
      {"smiles": "O=C1c2ccccc2C(=O)N1c1nc(-c2ccc(Cl)cc2)cs1", "activity change, negative = cytotoxicity": "inactive: 0%"},
      {"smiles": "CCn1cc2nc(SCc3cccc(C(F)(F)F)c3)n(CCc3ccccc3)c(=O)c2n1", "Potency": "inconclusive: 20.6 µM [cytotoxic, single point]"},
      {"smiles": "COc1ccc(/C=N/N2CCN(Cc3ccccc3)CC2)cc1", "activity change, negative = cytotoxicity": "inactive: 1.75%"},
      {"smiles": "CC(=O)NC12CC3CC(C1)CC(C(=O)N1CCN(S(=O)(=O)c4cccc(F)c4)CC1)(C3)C2", "activity change, negative = cytotoxicity": "inactive: -17.1%"},
      {"smiles": "N#CCCn1cc(C(=O)Nc2ccc([N+](=O)[O-])cc2)c(-c2cc3ccccc3o2)n1", "activity change, negative = cytotoxicity": "inactive: 6.82%"},
      {"smiles": "CCOC(=O)C1(C)CCN1C(=O)c1ccc(-c2ccccc2)cc1", "note": "(configuration not stated)", "Potency": "inconclusive: 18.4 µM [cytotoxic, single point]"},
      {"smiles": "CC(CCc1ccccc1)NC(=O)c1nnc(Cc2ccc(Cl)cc2)o1", "note": "(configuration not stated)", "activity change, negative = cytotoxicity": "inactive: -16.6%"},
      {"smiles": "O=c1c2ccccc2[nH]c(=S)n1Cc1cccnc1", "Potency": "inconclusive: 29.1 µM [cytotoxic, single point]"},
      {"smiles": "CCN1C(=C2C(=O)c3ccccc3C2=O)C=Cc2ccccc21", "Potency": "active: 1.84 µM"},
      {"smiles": "Cc1nc(-c2ccccc2)sc1-c1n[nH]c(=S)n1C", "Potency": "inconclusive: 8.2 µM [cytotoxic, partial curve, poor fit]"},
      {"smiles": "COc1ccccc1CN1C2CCCC1CC(NC(=O)/C=C/c1ccccc1)C2", "note": "(configuration not stated)", "activity change, negative = cytotoxicity": "inactive: -16.7%"},
      {"smiles": "CC(C)=CCc1c(O)ccc(C(=O)Cc2ccccc2)c1O", "activity change, negative = cytotoxicity": "inactive: -2.72%"},
      {"smiles": "CCCOc1ccccc1NC(=O)c1ccc([N+](=O)[O-])cc1", "activity change, negative = cytotoxicity": "inactive: -13.7%"},
      {"smiles": "CCCOc1ccc(C2C(C(=O)c3ccco3)=C(O)C(=O)N2CCCn2ccnc2)cc1", "note": "(configuration not stated)", "Potency": "inconclusive: 18.4 µM [rising, single point]"},
      {"smiles": "CCCCn1c(-c2csc3c2CCCC3)n[nH]c1=S", "Potency": "active: 20.6 µM"},
      {"smiles": "COc1cc2c(cc1OC)CN(C(=O)c1cc(Cl)nc(Cl)c1)CC2", "Potency": "inconclusive: 20.6 µM [cytotoxic, single point]"},
      {"smiles": "CN(Cc1ccccc1)C(=O)c1[nH]cnc1C(=O)Nc1ccccc1F", "activity change, negative = cytotoxicity": "inactive: 3.65%"},
      {"smiles": "CC1=C(C(=O)N(C)C)CC(CC(=O)NC2CCCCC2)C(=O)N1CCC1=CCCCC1", "note": "(configuration not stated)", "Potency": "inconclusive: 9.2 µM [cytotoxic, partial curve, poor fit]"},
      {"smiles": "c1ccc(CSc2ccc(-c3ccccn3)nn2)cc1", "Potency": "inconclusive: 7.31 µM [cytotoxic, partial curve, poor fit]"},
      {"smiles": "CCCc1cc(=O)oc2cc(C)cc(OC(=O)c3ccco3)c12", "Potency": "inconclusive: 23.1 µM [cytotoxic, single point]"},
      {"smiles": "COc1ccc(-c2[nH]c(-c3ccc(F)cc3)nc2SCC(=O)Nc2ccc(OC)c(OC)c2)cc1", "activity change, negative = cytotoxicity": "inactive: 10.9%"},
      {"smiles": "O=C(O)C1CCCN1C(=O)NC1CCCCC1", "note": "(configuration not stated)", "activity change, negative = cytotoxicity": "inactive: -20.5%"},
      {"smiles": "COc1ccc(Br)c(Cn2c(C)c(C(=O)NCc3ccc(F)cc3)sc2=O)c1", "Potency": "inconclusive: 16.4 µM [cytotoxic, partial curve]"},
      {"smiles": "COc1ccc(NC(=O)C2Cc3c(-c4ccc(NC(C)=O)cc4)ccnc3O2)cc1OC", "note": "(configuration not stated)", "Potency": "inconclusive: 7.31 µM [cytotoxic, partial curve]"}
    ]}
  ]
}
